Reference: PubChem BioAssay AID504793 (Drosophila RNAi Screening Center, 2011)

Aim: 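Genes required for cells to halt at G2/M after double-strand DNA breaks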 (primary screen)
Cells: Drosophila S2R+ cells
Knock-down reagent: long dsRNA against Drosophila genes, about 0.25 µg dsRNA per well
Timing: 4 days of dsRNA, then 4 hours of drug before read-out
Conditions: doxorubicin 0.5 µM for 4 hours to cause double-strand breaks, in cells also given a low, harmless dose of dsRNA against nbs to sensitise the assay
Read-out: 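Per-well count of mitotic cells stained for phospho-histone H3 after doxorubicin exposure, used as mitotic index; counts are raw and not normalised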
Scale: mitotic cells: higher = more cells in mitosis, weaker G2 arrest
Active means: 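Genes are called active only when high mitotic counts were reproduced with independent dsRNAs and mitosis was checked for delay without damage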
Meaning of the calls: active = confirmed in follow-up tests; inactive = not confirmed
The screen tested about 23,000 reagents; below is a random part of those that have a named target and a result. Of all reagents, 62 (0.27%) were called active. 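Calls come from follow-up tests whose scores are not deposited, so confirmed genes may have low counts here; counts are not normalised per plate.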 The raw values are shown without normalisation. Entries without a mark were called inactive. Reagents against one gene are numbered here. A plus sign joins genes that one reagent is predicted to hit.

gene	reagent no.	mitotic cells, replicate 1	mitotic cells, replicate 2
CG13192	1	8	
CG9737	1	8	
CG4641 (retired record)	1	6	
CG4641 (retired record)	2	3	
Rbf (Retinoblastoma-family protein)	1	12 (active)	
Rbf (Retinoblastoma-family protein)	2	6	
upSET	1	10	
CG5554	1	8	
CG5554	2	3	
CG4238	1	3	
Ctns (Cystinosin)	1	14	
mRpL48 (mitochondrial ribosomal protein L48)	1	8	
CG32170	1	21	
Or46a (Odorant receptor 46a)	1	7	
Or46a (Odorant receptor 46a)	2	4	
Or46a (Odorant receptor 46a)	3	11	
Or46a (Odorant receptor 46a)	4	11	
Mondo	1	13	
Mondo	2	6	
Mondo	3	5	
y (yellow)	1	10	
Grl43a (Gustatory receptor-like 43a)	1	3	
CG31244	1	4	
Nlg4 (Neuroligin 4)	1	10	
Nlg4 (Neuroligin 4)	2	9	
Nlg4 (Neuroligin 4)	3	11	
Nlg4 (Neuroligin 4)	4	7	
Nlg4 (Neuroligin 4)	5	11	
Nlg4 (Neuroligin 4)	6	1	
CG32694	1	9	
CG32694	2	4	
CG32694	3	9	
CG32694	4	4	
FarO (Fatty acyl-CoA reductase in oenocytes)	1	15	
CG4607	1	4	
polo	1	10	
polo	2	575	
Ttd14 (TRPL translocation defect 14)	1	4	
Ttd14 (TRPL translocation defect 14)	2	6	
Mpi (Mannose phosphate isomerase)	1	4	
CG33346	1	12	
jet (jetlag)	1	2	
jet (jetlag)	2	7	
kkv (krotzkopf verkehrt)	1	2	
Eip75B (Ecdysone-induced protein 75B)	1	11	
Eip75B (Ecdysone-induced protein 75B)	2	15	
Ir51b (Ionotropic receptor 51b)	1	9	
Gr66a (Gustatory receptor 66a)	1	6	
msk (moleskin)	1	6	
msk (moleskin)	2	3	
CG30098	1	6	
CG30098	2	7	
Loxl1 (Lysyl oxidase-like 1)	1	9	
GalT1 (beta1,3-galactosyltransferase 1)	1	3	
CG33340	1	10	
CG33340	2	4	
CG14174	1	5	
CG14260	1	4	
CG5062	1	8	
TppII (Tripeptidyl-peptidase II)	1	7	
Lgr4 (Leucine-rich repeat-containing G protein-coupled receptor 4)	1	8	
Lgr4 (Leucine-rich repeat-containing G protein-coupled receptor 4)	2	10	
Lgr4 (Leucine-rich repeat-containing G protein-coupled receptor 4)	3	11	
CG11454	1	4	
CG11454	2	2	
Vsp37A (Vacuolar protein sorting 37A)	1	11	
dpr15 (defective proboscis extension response 15)	1	7	
dpr15 (defective proboscis extension response 15)	2	1	
dpr15 (defective proboscis extension response 15)	3	6	
Vps8 (Vacuolar protein sorting 8)	1	10	
CG13712	1	6	
Nulp1 (Nuclear localized protein 1)	1	8	
CG34309	1	5	
CadN2 + CG42830	1	5	
CadN2 + CG42830	2	4	
CadN2 + CG42830	3	7	
CG10222	1	10	
CG10222	2	4	
CG8372	1	9	
CG7080	1	6	
CG7080	2	7	
cana + CG33695	1	7	
CG17568	1	7	14
CG42307 + mus312	1	3	
CG42307 + mus312	2	40 (active)	
Hpr1	1	6	
Dtwd2 + Obp84a	1	7	
Dtwd2 + Obp84a	2	1	
CheB53a (Chemosensory protein B 53a)	1	11	
timeout	1	15	
timeout	2	7	
timeout	3	3	
timeout	4	3	
timeout	5	2	
timeout	6	10	
Obp8a (Odorant-binding protein 8a)	1	18	
Obp8a (Odorant-binding protein 8a)	2	8	
RpS9 (Ribosomal protein S9)	1	6	
CG13258	1	3	
hang (hangover)	1	11	
hang (hangover)	2	7	
lmd (lame duck)	1	6	
lmd (lame duck)	2	3	
glo (glorund)	1	4	
glo (glorund)	2	5	
CG11927	1	6	
ND-B17 (NADH dehydrogenase (ubiquinone) B17 subunit)	1	6	
CG16713	1	8	
qvr (quiver)	1	4	
CG10055	1	6	

8 entries from above, reduced to “mitotic cells, replicate 1”:
Grl43a (Gustatory receptor-like 43a): 3
CG31244: 4
Nlg4 (Neuroligin 4) #1: 10
Nlg4 (Neuroligin 4) #2: 9
Nlg4 (Neuroligin 4) #3: 11
Nlg4 (Neuroligin 4) #4: 7
Nlg4 (Neuroligin 4) #5: 11
Nlg4 (Neuroligin 4) #6: 1
